Reference: publication PMC10893521, “Influence of Desialylation on the Drug Binding Affinity of Human Alpha-1-Acid Glycoprotein Assessed by Microscale Thermophoresis” (Pharmaceutics, 2024)

How the values were obtained:
[1] = biological target: T1, Native human AAG (alpha-1-acid glycoprotein, orosomucoid); assay: microscale thermophoresis, RED-NHS labelled protein, […] fit; format: binding; settings: 25 mM sodium phosphate pH 7.4, 0.05% Tween 20, 5% DMSO, room temperature, 20 nM AAG
T1 construct: gene ORM1; native human plasma protein, 183 residues, two cystine bridges, five N-glycans, fully sialylated (IS 270)

[2] = biological target: T2, Desialylated human AAG; assay: as above; format: binding; settings: 25 mM sodium phosphate pH 7.4, 0.05% Tween 20, 5% DMSO, room temperature, 20 nM AAG
T2 construct: gene ORM1

Kd [1]: 811 µM
Kd [2]: 1200 µM
SMILES: CC(C)NCC(O)COc1cccc2ccccc12 (racemic) [propranolol]
